The assay concerns the target shed Muc1 having the CA6 epitope (ovarian cancer patient serum; CA15-3 standards) (human) (UniProt P15941). The experiment in a line: sandwich ELISA: plated DS6, biotinylated DS6 tracer, streptavidin-HRP; ovarian cancer patient serum or CA15-3 standards. (In an ELISA, binding on a coated surface is turned into a signal by an enzyme label.)

By UniProt entry, the sequences of proteins in these tests, tags left out. Residues count along the entry.
UniProt P15941, residues 24-1097: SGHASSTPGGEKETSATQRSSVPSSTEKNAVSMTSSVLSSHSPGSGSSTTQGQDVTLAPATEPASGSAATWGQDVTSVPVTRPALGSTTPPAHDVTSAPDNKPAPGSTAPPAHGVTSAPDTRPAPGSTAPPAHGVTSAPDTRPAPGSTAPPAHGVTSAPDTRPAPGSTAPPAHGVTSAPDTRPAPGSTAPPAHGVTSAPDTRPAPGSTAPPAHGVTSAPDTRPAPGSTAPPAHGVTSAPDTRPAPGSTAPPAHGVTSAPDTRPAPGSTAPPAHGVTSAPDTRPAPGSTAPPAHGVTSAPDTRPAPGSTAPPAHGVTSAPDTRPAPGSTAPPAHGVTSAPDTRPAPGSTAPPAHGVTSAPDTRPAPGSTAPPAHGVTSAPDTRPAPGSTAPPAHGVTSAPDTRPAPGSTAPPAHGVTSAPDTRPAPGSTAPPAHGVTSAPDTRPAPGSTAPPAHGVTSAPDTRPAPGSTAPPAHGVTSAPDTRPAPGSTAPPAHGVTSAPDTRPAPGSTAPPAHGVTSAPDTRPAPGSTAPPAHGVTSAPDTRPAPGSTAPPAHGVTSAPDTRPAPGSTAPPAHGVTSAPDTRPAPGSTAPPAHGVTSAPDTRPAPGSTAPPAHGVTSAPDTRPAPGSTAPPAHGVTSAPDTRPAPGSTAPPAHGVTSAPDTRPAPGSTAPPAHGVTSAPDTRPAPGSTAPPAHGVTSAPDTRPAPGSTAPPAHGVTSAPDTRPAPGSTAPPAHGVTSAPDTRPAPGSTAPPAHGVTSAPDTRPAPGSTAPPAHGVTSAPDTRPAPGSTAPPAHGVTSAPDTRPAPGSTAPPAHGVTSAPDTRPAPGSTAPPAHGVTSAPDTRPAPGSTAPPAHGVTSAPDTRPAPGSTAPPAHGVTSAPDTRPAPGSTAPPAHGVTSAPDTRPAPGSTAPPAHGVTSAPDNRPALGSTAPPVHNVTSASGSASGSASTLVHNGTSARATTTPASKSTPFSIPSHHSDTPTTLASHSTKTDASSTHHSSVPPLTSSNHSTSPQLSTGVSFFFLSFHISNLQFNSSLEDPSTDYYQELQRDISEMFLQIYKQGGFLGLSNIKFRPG

No constants are given. Whether binding was seen depends on the method and setting. Some entries that bind do so weakly or less than the wild type.

B1: murine anti-CA6 monoclonal antibody DS6 (antibody, mouse IgG1, V domains shown)
VH: QAYLQQSGAELVRSGASVKMSCKASGYTFTSYNMHWVKQTPGQGLEWIGYIYPGNGATNYNQKFKGKATLTADPSSSTAYMQISSLTSEDSAVYFCARGDSVPFAYWGQGTLVTVSA
VL: QIVLTQSPAIMSASPGEKVTITCSAHSSVSFMHWFQQKPGTSPKLWIYSTSSLASGVPARFGGSGSGTSYSLTISRMEAEDAATYYCQQRSSFPLTFGAGTKLELKR
As for B1, the binding entry is recorded as “binds”.

The values above are taken from US20110064733A1.
